Data from PubChem BioAssay AID485298 (National Center for Advancing Translational Sciences (NCATS), 2010).
About 740 (0.23%) of roughly 320,000 compounds were called active. This list was built around the results that the source calls inconclusive (neither active nor inactive); the mix of calls is not that of the screen. The call rests on the fitted dose curve; in most records, active means well fitted activation curve with a large enough effect; inconclusive means small, poorly fitted or top-dose-only effect; inactive means no such curve, though single readings can be large or run the other way. Potencies of inconclusive entries are doubtful fits and often do not repeat.

assay: qHTS Assay for Small Molecule Inhibitors of Mitochondrial Division or Activators of Mitochondrial Fusion; further: nearly all actives have a fitted effect of over 45% in size; conditions: S. cerevisiae fusion-defective mutant growth rescue, CellTiterGlo 48 h; series mostly up to 46.1 µM
Method in brief: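 Read-out: ATP-based luminescence (CellTiterGlo, 10 min ambient) reporting growth of fusion-defective ts yeast after 48 hours at 37C on glycerol/ethanol YPEG medium in the presence of compound.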
Potency means the concentration at half of the fitted maximal effect.

Structure (SMILES)	Potency
C#CCOn1c(-n2nc(C)cc2C)nc2ccccc2c1=O	inactive
CCC1=C(OC(=O)N(CC)CC)N2C(=O)OC(=NCC3CC3)[C@]2(Cc2ccccc2)[C@H]2C1=CC[C@H]1C(=O)N(CC(=O)OC)C(=O)[C@H]12	inconclusive: 25.1 µM [activator, partial curve]
CC1(C)CC(=O)C=C(c2ccc(F)cc2OCc2ccccc2)C1	inconclusive: 17.8 µM [activator, single point]
OCCN(CCO)c1nc(N2CCCCC2)c2nc(N(CCO)CCO)nc(N3CCCCC3)c2n1	inconclusive: 25.9 µM [activator, partial curve]
Cn1cc(C[C@H](C(=O)O)N2C(=O)c3ccc(C(=O)O)cc3C2=O)c2ccccc21	inactive
CCCCCn1c(=NC(C)=O)c(C#N)cc2c(=O)n3ccccc3nc21	inconclusive: 8.91 µM [activator, partial curve]
Cc1nn(Cc2ccc(Cl)cc2)c(C)c1NC(=O)c1c(-c2ccccc2)noc1C	inactive
COc1ccc(C)cc1NC(=O)C(OC(=O)c1cc(C)oc1C)c1ccccc1 (stereo unspecified)	inconclusive: 10 µM [activator, partial curve]
CC(C)CC(=O)Nc1cc(C(F)(F)F)ccc1N1CCOCC1	inconclusive: 5.62 µM [activator, partial curve]
CCc1ccccc1NC(=O)COC(=O)C1C2CC3OC(=O)C1C3C2 (stereo unspecified)	inactive
O=[N+]([O-])c1ccc(/C=N/Nc2nc(N3CCCCCC3)nc(N3CCCCCC3)n2)o1	inconclusive: 12.6 µM [activator, partial curve]
CSc1nc(N)c(C#N)c(-c2ccccc2Cl)c1C#N	inconclusive: 11.2 µM [activator, partial curve]
Cc1ccc(C)c(-c2nnc(NC(=O)c3ccc([N+](=O)[O-])o3)o2)c1	inconclusive: 7.08 µM [activator, partial curve]
CCC1=Nc2cc(C(=O)NCc3ccco3)ccc2Sc2ccc(C)cc21	inconclusive: 14.1 µM [activator, single point]
COc1ccc2c(c1)CCc1c(C(=O)N3CCCc4ccccc43)noc1-2	inconclusive: 22.4 µM [activator, single point]
O=S(=O)(Nc1cccc(-c2nc3cccnc3s2)c1)c1ccc2c(c1)OCCO2	inconclusive: 20 µM [activator, single point]
COc1ccc(NC(=O)c2cc3cc(OC)ccc3oc2=N)cc1	inactive
Cc1cccc(-n2c(SCc3cc(=O)n4ccsc4n3)nc3ccccc32)c1	inconclusive: 4.47 µM [activator, full curve, poor fit]
S=C(NCc1ccc2[nH]c3c(c2c1)CCCC3)Nc1ccccc1	inconclusive: 31.6 µM [activator, single point]
Cc1ccc(-c2ccc(C(=O)Nc3cccc(F)c3)o2)c2ccccc12	inconclusive: 35.5 µM [activator, single point]
CCOC(=O)N1CCN(C(=O)CSCc2ccccc2)CC1	inactive
Cc1cccc(N2CCN(C(=O)c3cccc(N4CCCC4=O)c3)CC2)c1C	inconclusive: 12.6 µM [activator, partial curve]
O=C(NCc1ccco1)C1CCN(C(=O)c2cc3sccc3n2Cc2ccc(F)cc2)CC1	inconclusive: 20 µM [activator, single point]
COC(=O)c1c(NC(=O)COC(=O)c2ccc(O)cc2)sc2c1CCCCC2	inactive

Structure (SMILES)	Potency
CCOc1ccccc1N1CCN(C(=O)CCCN2C(=O)c3cccc4cccc(c34)C2=O)CC1	inconclusive: 31.6 µM [activator, single point]
CC1CCCCN1C(=O)CSc1nnc(-c2c[nH]c3ccccc23)o1 (stereo unspecified)	inconclusive: 35.5 µM [activator, single point]
CCOc1ccc(NC(=O)NC23CC4CC(CC(C4)C2)C3)cc1	inconclusive: 20 µM [activator, single point]
N#CCc1ccc(NS(=O)(=O)c2ccc(C3CCCCC3)cc2)cc1	inconclusive: 22.4 µM [activator, single point]
COc1cccc(OCC(=O)Nc2ccccc2-c2ccccc2)c1	inconclusive: 17.8 µM [activator, single point]
CNCCCNC(=O)c1ccc(/C=N/O)nc1	inconclusive: 2.82 µM [activator, full curve, poor fit]
Cc1cccc2nc(COc3ccc(-c4ccccc4)cc3)cn12	inconclusive: 22.4 µM [activator, single point]
C/C(=N\NC(=O)c1ccccc1)c1ccccc1F	inactive
COc1ccccc1CC(=O)N1CCN(c2cccc(Cl)c2)CC1	inactive
CCOc1ccc(N(Cc2ccc(OC)cc2)C(=O)c2ccco2)cc1	inconclusive: 35.5 µM [activator, single point]
CCOc1ccc(-n2nc3c(=S)[nH]nc(C)c3c2C)cc1	inactive
COc1cccc(C2CCCN2Cc2nc(CCC(C)C)no2)c1 (stereo unspecified)	inactive
O=C(N/N=C/c1cccs1)/C(=C/c1ccccc1)NC(=O)c1ccccc1	inactive
CCCN(CCC)c1ccc(CC(=O)NC(C)Cc2ccccc2)cc1 (stereo unspecified)	inconclusive: 14.1 µM [activator, partial curve]
O=C(CNC(=O)OCc1ccccc1)NC1CCCCCCC1	inconclusive: 22.4 µM [activator, single point]
Cc1ccc(NC(=S)N(Cc2ccccc2)Cc2cccs2)c(C)c1	inconclusive: 35.5 µM [activator, partial curve]
NS(=O)(=O)c1ccc(Oc2ccc(S(N)(=O)=O)cc2)cc1	inconclusive: 22.4 µM [activator, partial curve]
Cc1nc(N2CCC(C)CC2)c2c(C)c(C(=O)Nc3ccc(C(F)(F)F)cc3)sc2n1	inactive
COc1cccc(NC(=S)N2CCN(C(c3ccccc3)c3ccccc3)CC2)c1	inconclusive: 22.4 µM [activator, single point]
Cc1nc2c(ccc3nc(NC(=O)C(c4ccccc4)c4ccccc4)sc32)s1	active: 7.08 µM
CC(C)=C1SC(N2CCN(c3cccc(Cl)c3)CC2)=NC1=O	inconclusive: 8.91 µM [activator, partial curve]
Cc1ccc(-c2cc(C(F)F)nc(NCc3cccnc3)n2)cc1	inconclusive: 17.8 µM [activator, partial curve]
CCn1c2ccccc2c2cc(NC(=O)c3cccc(OC)c3)ccc21	inconclusive: 17.8 µM [activator, single point]
O=C(Nc1cccnc1)Nc1ccc(Br)cc1Cl	inconclusive: 20 µM [activator, partial curve]

Some of the entries so far, with bars between the fields:
Structure (SMILES) | Potency
Cc1ccc(NC(=S)N(Cc2ccccc2)Cc2cccs2)c(C)c1 | inconclusive: 35.5 µM [activator, partial curve]
NS(=O)(=O)c1ccc(Oc2ccc(S(N)(=O)=O)cc2)cc1 | inconclusive: 22.4 µM [activator, partial curve]
Cc1nc(N2CCC(C)CC2)c2c(C)c(C(=O)Nc3ccc(C(F)(F)F)cc3)sc2n1 | inactive
COc1cccc(NC(=S)N2CCN(C(c3ccccc3)c3ccccc3)CC2)c1 | inconclusive: 22.4 µM [activator, single point]
Cc1nc2c(ccc3nc(NC(=O)C(c4ccccc4)c4ccccc4)sc32)s1 | active: 7.08 µM
CC(C)=C1SC(N2CCN(c3cccc(Cl)c3)CC2)=NC1=O | inconclusive: 8.91 µM [activator, partial curve]

More entries follow:

Structure (SMILES)	Potency
CCOC(=O)C1=C(C)NC(C)=C(C(=O)OCC)C1c1ccc(Br)o1	inconclusive: 11.2 µM [activator, partial curve]
CCOc1ccc(S(=O)(=O)NCCc2cn3ccccc3n2)cc1	inactive
COc1ccccc1Oc1ccc2c(c1)C(=O)N(c1cccc(O)c1)C2=O	inactive
Cc1ccccc1OCC(=O)Nc1ccc(C)c(S(=O)(=O)N2CCCCCC2)c1	inconclusive: 17.8 µM [activator, single point]
O=C(Cc1ccc(Cl)cc1)NCC(=O)N1CCN(Cc2ccccc2)CC1	inactive
O=C(O)c1cccc(-n2cc(-c3cccc(C(F)(F)F)c3)cn2)c1	active: 15.8 µM
COc1ccc2c(c1OC)C(=O)N1N=C(c3ccc(Br)cc3)CC21 (stereo unspecified)	active: 15.8 µM
CCCCC(=O)NNC(=S)NC(=O)c1ccc(C)cc1	inactive
CN(C)c1oc(-c2ccccc2Cl)nc1P(=O)(c1ccccc1)c1ccccc1	inactive
CC(C)(C)c1ccc(S(=O)(=O)N2CCC(CO)(CC3CCCCO3)CC2)cc1 (stereo unspecified)	inconclusive: 35.5 µM [activator, single point]
COc1ccc(Br)cc1CN(C)CC(=O)Nc1ccccc1Cl	inconclusive: 22.4 µM [activator, single point]
CCOc1ccc(NC(=O)CN2C(=O)CSc3ccc(S(=O)(=O)N4CCOCC4)cc32)cc1	inconclusive: 7.08 µM [activator, partial curve, poor fit]
O=C(Nc1ccccc1)c1ccc(CN2CCc3ccccc3C2)cc1	inactive
CCc1nnc(NC(=O)c2sc3nc4c(cc3c2N)CCCCC4)s1	inconclusive: 14.1 µM [activator, partial curve]
Cc1cccc(Cn2c(Cc3ccccc3)nc3ccccc32)c1	inconclusive: 17.8 µM [activator, single point]
CC1=C(C(N)=O)C(c2ccccc2)n2nc(-c3cccs3)nc2N1 (stereo unspecified)	inconclusive: 35.5 µM [activator, single point]
O=S(=O)(c1ccccc1)N1CCN(c2ccnc3cc(Cl)ccc23)CC1	inconclusive: 35.5 µM [activator, single point]
CC1=C(C(=O)OCC2CCCO2)C(c2cccc(C(F)(F)F)c2)C2=C(CC(c3ccco3)CC2=O)N1 (stereo unspecified)	inactive
CCOC(=O)/C(=C/c1c2ccccc2cc2ccccc12)NC(=O)c1ccccc1	inactive
O=C(COc1ccccc1)Nc1nnc(-c2ccc(Cl)cc2)o1	inactive
Cc1ccccc1COC[C@H](CC(C)C)N1CCN(C(=O)c2cccc(C(F)(F)F)c2)CCC1=O	inactive
CC(C(=O)Nc1ccc(O)cc1)c1cccc(C(=O)c2ccccc2)c1 (stereo unspecified)	inactive
CC(C)c1cc(C(=O)N2CCN(C(c3ccccc3)c3ccccc3)CC2)no1	inconclusive: 35.5 µM [activator, single point]
